# Measured values as given in paper PMC11672294, “The Antipsychotic Drug Aripiprazole Suppresses Colorectal Cancer by Targeting LAMP2a to Induce RNH1/miR‐99a/mTOR‐Mediated Autophagy and Apoptosis” (Advanced Science, 2024).
# Where a name gives a salt, the structure may show the parent alone. The list shows a part of the results, in another mix than the full data.
# Tested on: HT29
# Conditions: 72 h, relative to DMSO; 10 µM
# From the text: To investigate the key signaling pathways and biological processes involved in CRC progression, we analyzed the National Center for Biotechnology Information Gene Expression Omnibus (GEO) dataset GSE115313, which included 42 CRC and paired normal tissues (Figure 1A). […] Next, we performed an Annexin V‐fluorescein isothiocyanate (FITC)/propidium iodide (PI) staining assay to determine the effect of aripiprazole on apoptosis in CRC cells. […] A) Principal component analysis of GEO dataset (GSE115313), which includes 42 CRC and paired normal tissues. B) Gene Ontology pathway analysis of the DEPs between CRC and paired normal tissues. […] D) Schematic diagram for identifying anticancer drugs amongst an US Food and Drug Administration‐approved small‐molecule library (616 compounds) using WST‐1 assay. E) HT29 cells were treated with the 616 drugs (10 µM) individually or with dimethyl sulfoxide for 72 h, followed by WST‐1 assay. […] J) Mice bearing HT29‐derived tumor xenografts were intragastrically administered with aripiprazole (10 or 20 mg kg^−1) once every 2 d, n = 6 mice/group. […] Bars, SD; ^* p < 0.05; ^** p < 0.01; ^*** p < 0.001; ns, no significant difference. The WST‐1 Cell Proliferation and Cytotoxicity Assay Kit (Beyotime Biotechnology, Shanghai, China) was used to measure cell viability, as described previously.^[ [10] ^] CRC cells were seeded into 96‐well plates and treated with different drug concentrations. Following that, WST‐1 was added to the plate and incubated with the cells for 2 h, at 37 °C. Absorbance at the wavelength of 450 nm was measured using an automated microplate spectrophotometer (BioTek Instruments, Winooski, VT, USA).
row,SMILES,Relative cell viability (%)
1,COC(=O)C1=C(C)NC(C)=C(C(=O)OC)C1c1ccccc1[N+](=O)[O-] [Nifedipine],90.68%
2,CCC[C@@H]1C[C@@H](C(=O)N[C@@H]([C@H]2O[C@H](SC)[C@H](O)[C@@H](O)[C@H]2O)[C@H](C)Cl)N(C)C1 [Clindamycin],60.68%
3,C[C@@H](O)[C@H]1C(=O)N2C(C(=O)OCOC(=O)C(C)(C)C)=C(SC3CN(C4=NCCS4)C3)[C@H](C)[C@H]12 [Tebipenem Pivoxil],110.2%
4,CCn1cc(C(=O)O)c(=O)c2cc(F)c(N3CCN(C)CC3)cc21 [Pefloxacin Mesylate],109.7%
